Measured values published in patent publication US20110038802A1, “METHOD OF DETERMINING ALANINE TRANSAMINASE (ALT) ACTIVITY BY 13C-MR DETECTION USING HYPERPOLARISED 13C-PYRUVATE” (priority 2008, published 2011).

Test system: alanine transaminase (ALT)
Experiment: 3D-13C-MR spectroscopic imaging of liver of normal and fasted rats after injection of hyperpolarised 13C-pyruvate
Assay type: in vivo, rat
Conditions: averaged over liver voxels, Mann-Whitney Rank-Sum test
Protocol: Two groups of rats were included in this study, to investigate liver metabolism both in fasted and non-fasted rats. Non-fasted rates were allowed to feed freely while fasted rats had their food removed about 24 hrs before MR-detection.
A catheter was introduced into the tail vein, and rats were then placed in MR scanner.
3 ml of the imaging medium as prepared in Example 1 was injected over 12 s via the tail vein catheter into the rat.
A home-built dual tuned ^1H/^13C RF coil was fit over the rat abdomen, localising signal from the liver. Rats were positioned in a 3 T horizontal bore GE MR scanner.
Lactate area to total carbon area and alanine area to total carbon area were calculated for each voxel and then averaged over all liver voxels to derive the test statistics average lactate to total carbon ratio and average alanine to total carbon ratio.

SMILES: CC(=O)C(=O)O [^13C1-pyruvate, sodium ^13C1-pyruvate]
- alanine to total carbon area, normal versus fasted groups (P<0.01): statistically significant difference
- lactate to total carbon area, normal versus fasted groups (P=0.42): no statistically significant difference
